The supplement of paper PMC4604168 (melanoma cell lines)
The other results are listed elsewhere or left out. Many values rest on one well or one pass, so single values are uncertain.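 Imaging used 1,536-well plates; nuclei positive for cleaved PARP by antibody were divided by total DNA-stained nuclei to yield the apoptosis fraction. Doses for screening kept most cells viable, and cell lines differ markedly in resting and induced cleaved-PARP levels.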

Columns and labels:
Assay in all cases: cleaved PARP positive nuclei fraction relative to DMSO control; melanoma cells; higher = more apoptosis
Conditions in all cases: library dose: low library concentration; 72 h
[1] = tested on: WM115
[2] = tested on: WM1716
[3] = tested on: WM1745
[4] = tested on: WM3526
[5] = tested on: WM3619
[6] = tested on: WM451Lu

Row | Compound | cleaved PARP positive nuclei fraction [1] | cleaved PARP positive nuclei fraction [2] | cleaved PARP positive nuclei fraction [3] | cleaved PARP positive nuclei fraction [4] | cleaved PARP positive nuclei fraction [5] | cleaved PARP positive nuclei fraction [6]
1 | COc1ccc(COc2ccc(Cc3cnc(N)nc3N)cc2OC)cc1 + CCCCCCCCCCCC1=C(O)C(=O)C=C(O)C1=O [Embelin] (first compound 1 µM, partner dose 1.2 µM) | 49.8% | 57.3% | 87% | 66.5% | 211% | 29.8%
2 | COC(=O)c1sccc1S(=O)(=O)Nc1ccc(Nc2ccccc2)cc1OC + Cc1cc([N+](=O)[O-])ccc1NS(=O)(=O)c1cc(Cl)ccc1Cl [FH535] (first compound 1 µM, partner dose 1 µM) | 151% | 92.4% | 111% | 62.8% | 82.4% | 113%
3 | COc1cc2c(Oc3ccc4[nH]c(C)cc4c3F)ncnc2cc1OCCCN1CCCC1 [cediranib] + Cn1cc(/C=C2\C(=O)Nc3cccnc32)c2ccccc21 [GW441756] (first compound 0.4 µM, partner dose 0.4 µM) | 48.3% | 44.1% | 115% | 75.3% | 63.7% | 52.4%
4 | CN(NC(=O)CC(=O)NN(C)C(=S)c1ccccc1)C(=S)c1ccccc1 + CCc1ccc(CCOc2ccc(CC3SC(=O)NC3=O)cc2)nc1 [pioglitazone] (first compound 0.006 µM, partner dose 2 µM) | 233% | 137% | 342% | 56.3% | 122% | 209%
5 | CN(C)S(=O)(=O)c1ccc2c(c1)/C(=C/c1cc3c([nH]1)CCCC3)C(=O)N2 + CC(C)CCN1c2nc(Nc3cc(F)c(O)c(F)c3)ncc2N(C)C(=O)C1C [BID1870] (first compound 0.4 µM, partner dose 0.2 µM) | 393% | 49% | 105% | 67% | 72.3% | 329%
6 | O=C(Nc1ccccc1)c1cc([N+](=O)[O-])ccc1Cl + O=C1NC(=O)/C(=C/c2ccc(-c3ccc(F)cc3O)o2)S1 [AS252424] (first compound 2 µM, partner dose 1 µM) | 127% | 81.1% | 104% | 65.8% | 93.5% | 56%
7 | COc1ccc2c(c1)CCC1C2CCC2(C)C(NCCCCCCN3C(=O)C=CC3=O)CCC12 (centres undefined) + Cc1cc([N+](=O)[O-])ccc1NS(=O)(=O)c1cc(Cl)ccc1Cl [FH535] (first compound 0.4 µM, partner dose 1 µM) | 106% | 107% | 112% | 68.7% | 90% | 56.7%
8 | N#Cc1c(O)c2c(-c3ccc(-c4ccccc4O)cc3)csc2[nH]c1=O + O=C(O)C(=O)Nc1sc2c(c1C(=O)O)CCNC2 [TCS401] (first compound 2 µM, partner dose 1.66667 µM) | 87.3% | 99% | 95.6% | 90.6% | 75.8% | 115%
9 | O=C(O)c1ccc(-c2c[nH]c3ncc(-c4ccccc4)cc23)cc1C1CCCC1 + CCCCCCCCCCCC1=C(O)C(=O)C=C(O)C1=O [Embelin] (first compound 0.16 µM, partner dose 1.2 µM) | 73.5% | 92.2% | 93.9% | 68.5% | 249% | 80.3%
10 | Oc1nc(-c2ccc(C(F)(F)F)cc2)nc2c1CSCC2 + O=c1cc(-c2cccc3c2Sc2ccccc2S3)oc(N2CCOCC2)c1 [KU55933] (first compound 2 µM, partner dose 1 µM) | 49.2% | 318% | 121% | 72.6% | 85.4% | 90.6%
11 | N#Cc1c(O)c2c(-c3ccc(-c4ccccc4O)cc3)csc2[nH]c1=O + COc1cc(N2CCC(N3CCN(C)CC3)CC2)ccc1Nc1ncc(Cl)c(Nc2ccccc2S(=O)(=O)C(C)C)n1 [NVP-TAE684] (first compound 2 µM, partner dose 0.08 µM) | 60.4% | 194% | 98.1% | 121% | 149% | 86%
12 | COc1cc2c(Oc3ccc4[nH]c(C)cc4c3F)ncnc2cc1OCCCN1CCCC1 [cediranib] + COC(=O)c1sccc1S(=O)(=O)Nc1ccc(Nc2ccccc2)cc1OC [GSK0660] (first compound 0.4 µM, partner dose 1 µM) | 152% | 102% | 115% | 76.5% | 79.9% | 38.6%
13 | Oc1cc(-c2nc(-c3ccccc3)[nH]c2-c2ccncc2)ccc1Cl + CC(C)CCN1c2nc(Nc3cc(F)c(O)c(F)c3)ncc2N(C)C(=O)C1C [BID1870] (first compound 0.2 µM, partner dose 0.2 µM) | 288% | 43.6% | 130% | 231% | 93.8% | 130%
14 | O=C1NC(=O)/C(=C/c2ccc(-c3ccc(F)cc3O)o2)S1 + CCCCCCCCCCCC1=C(O)C(=O)C=C(O)C1=O [Embelin] (first compound 1 µM, partner dose 1.2 µM) | 80.5% | 121% | 98.3% | 31.8% | 77.7% | 160%

A second format for some results above.
Row	Compound	cleaved PARP positive nuclei fraction [1]	cleaved PARP positive nuclei fraction [2]	cleaved PARP positive nuclei fraction [3]	cleaved PARP positive nuclei fraction [4]	cleaved PARP positive nuclei fraction [5]	cleaved PARP positive nuclei fraction [6]
1	COc1ccc(COc2ccc(Cc3cnc(N)nc3N)cc2OC)cc1 + CCCCCCCCCCCC1=C(O)C(=O)C=C(O)C1=O [Embelin] (first compound 1 µM, partner dose 1.2 µM)	49.8%	57.3%	87%	66.5%	211%	29.8%
2	COC(=O)c1sccc1S(=O)(=O)Nc1ccc(Nc2ccccc2)cc1OC + Cc1cc([N+](=O)[O-])ccc1NS(=O)(=O)c1cc(Cl)ccc1Cl [FH535] (first compound 1 µM, partner dose 1 µM)	151%	92.4%	111%	62.8%	82.4%	113%
3	COc1cc2c(Oc3ccc4[nH]c(C)cc4c3F)ncnc2cc1OCCCN1CCCC1 [cediranib] + Cn1cc(/C=C2\C(=O)Nc3cccnc32)c2ccccc21 [GW441756] (first compound 0.4 µM, partner dose 0.4 µM)	48.3%	44.1%	115%	75.3%	63.7%	52.4%
4	CN(NC(=O)CC(=O)NN(C)C(=S)c1ccccc1)C(=S)c1ccccc1 + CCc1ccc(CCOc2ccc(CC3SC(=O)NC3=O)cc2)nc1 [pioglitazone] (first compound 0.006 µM, partner dose 2 µM)	233%	137%	342%	56.3%	122%	209%
